The other results are listed elsewhere or left out. Residues, ends and D or L forms follow the SMILES beside them. *: point of attachment. Cbz = O=C(OCc1ccccc1)*
What was measured:
Experiment in all cases: log2 fold change, soluble protein after heating vs DMSO (PISA); higher = thermal stabilisation; K562 cells, 10 uM, 30 min; active = over 0.2 and 3.5 SD of the protein, either way, in both replicates (recomputed)
erlotinib = compound: C#Cc1cccc(Nc2ncnc3cc(OCCOC)c(OCCOC)cc23)c1 [erlotinib]
In short: (§1)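 K562 cells at 2×10^6 cells/mL were treated for 30 min with 10 μM compound, and aliquots were heated for 3 min over 48°C-58°C before pooling. Extraction used PBS with 0.5% NP-40 at 4°C, and soluble protein was the supernatant after 21,000xg for 90 min, measured by TMTpro 16plex LC-MS/MS with channel sums equalised. Thermal stability values, relative to control samples and from duplicates, are log2 fold changes.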

Protein sequences, listed by entry. Tags and fused reporters are not part of them. Lines headed by an entry give the natural chain unless they say otherwise; changes in a name come on top.
UniProt Q8N6N3: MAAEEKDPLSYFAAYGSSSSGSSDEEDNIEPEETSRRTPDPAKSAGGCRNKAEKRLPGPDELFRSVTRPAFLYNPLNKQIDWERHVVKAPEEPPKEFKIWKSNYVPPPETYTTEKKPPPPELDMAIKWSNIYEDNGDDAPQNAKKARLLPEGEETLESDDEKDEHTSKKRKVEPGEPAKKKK
UniProt Q07021: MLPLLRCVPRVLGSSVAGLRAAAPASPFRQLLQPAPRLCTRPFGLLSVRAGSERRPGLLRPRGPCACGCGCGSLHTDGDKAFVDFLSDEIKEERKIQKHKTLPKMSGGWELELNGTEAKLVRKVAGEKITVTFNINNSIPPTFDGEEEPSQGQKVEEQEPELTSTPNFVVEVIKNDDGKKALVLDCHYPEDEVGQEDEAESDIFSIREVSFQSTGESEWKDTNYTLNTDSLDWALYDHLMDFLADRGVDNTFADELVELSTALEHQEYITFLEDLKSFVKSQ
UniProt Q96B23: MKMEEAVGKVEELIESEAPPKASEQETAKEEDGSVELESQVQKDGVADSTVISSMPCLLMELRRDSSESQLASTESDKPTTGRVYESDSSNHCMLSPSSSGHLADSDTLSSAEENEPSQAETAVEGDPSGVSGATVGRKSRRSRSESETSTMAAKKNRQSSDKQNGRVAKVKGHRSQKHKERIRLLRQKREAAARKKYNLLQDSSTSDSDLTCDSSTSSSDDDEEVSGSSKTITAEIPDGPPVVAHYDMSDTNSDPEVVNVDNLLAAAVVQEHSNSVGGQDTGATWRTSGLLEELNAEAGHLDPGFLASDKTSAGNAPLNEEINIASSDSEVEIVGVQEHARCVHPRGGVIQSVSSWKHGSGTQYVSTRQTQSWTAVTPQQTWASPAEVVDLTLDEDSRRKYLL
UniProt P27824: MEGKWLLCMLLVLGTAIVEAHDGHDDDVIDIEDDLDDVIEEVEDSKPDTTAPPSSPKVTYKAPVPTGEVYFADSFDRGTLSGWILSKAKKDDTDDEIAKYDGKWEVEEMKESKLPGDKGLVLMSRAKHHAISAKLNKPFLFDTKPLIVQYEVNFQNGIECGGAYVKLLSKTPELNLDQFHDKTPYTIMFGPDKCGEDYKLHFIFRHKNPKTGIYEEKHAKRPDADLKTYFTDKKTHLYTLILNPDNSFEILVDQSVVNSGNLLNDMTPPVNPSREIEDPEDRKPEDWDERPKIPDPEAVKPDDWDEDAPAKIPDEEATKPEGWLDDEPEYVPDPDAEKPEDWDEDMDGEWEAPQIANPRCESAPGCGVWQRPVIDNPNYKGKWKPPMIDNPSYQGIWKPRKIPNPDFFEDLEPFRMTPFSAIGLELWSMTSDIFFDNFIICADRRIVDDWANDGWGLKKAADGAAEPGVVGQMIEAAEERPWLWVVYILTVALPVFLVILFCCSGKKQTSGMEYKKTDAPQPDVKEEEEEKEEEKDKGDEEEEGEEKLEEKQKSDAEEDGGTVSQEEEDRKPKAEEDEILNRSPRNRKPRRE
UniProt O95873: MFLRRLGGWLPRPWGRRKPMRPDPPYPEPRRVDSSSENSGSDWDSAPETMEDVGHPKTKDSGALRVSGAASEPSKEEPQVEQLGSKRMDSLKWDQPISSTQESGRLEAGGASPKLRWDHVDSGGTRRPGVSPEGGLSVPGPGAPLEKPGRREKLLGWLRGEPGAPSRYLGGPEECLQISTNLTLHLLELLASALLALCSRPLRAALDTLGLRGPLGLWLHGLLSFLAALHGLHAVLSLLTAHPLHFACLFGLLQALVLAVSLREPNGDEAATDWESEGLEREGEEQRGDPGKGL
UniProt A6NDU8: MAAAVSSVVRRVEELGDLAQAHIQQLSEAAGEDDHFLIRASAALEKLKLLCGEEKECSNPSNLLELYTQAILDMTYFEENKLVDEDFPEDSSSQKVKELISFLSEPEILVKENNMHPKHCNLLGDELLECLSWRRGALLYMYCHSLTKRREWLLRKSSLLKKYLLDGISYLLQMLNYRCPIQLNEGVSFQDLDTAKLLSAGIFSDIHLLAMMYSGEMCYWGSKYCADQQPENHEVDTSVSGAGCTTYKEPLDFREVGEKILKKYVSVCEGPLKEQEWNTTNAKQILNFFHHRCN
UniProt Q8WUR7: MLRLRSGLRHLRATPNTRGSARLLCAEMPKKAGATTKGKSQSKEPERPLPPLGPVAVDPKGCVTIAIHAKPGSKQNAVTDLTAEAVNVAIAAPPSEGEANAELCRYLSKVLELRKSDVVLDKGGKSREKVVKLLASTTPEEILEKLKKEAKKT
UniProt Q6UWU4: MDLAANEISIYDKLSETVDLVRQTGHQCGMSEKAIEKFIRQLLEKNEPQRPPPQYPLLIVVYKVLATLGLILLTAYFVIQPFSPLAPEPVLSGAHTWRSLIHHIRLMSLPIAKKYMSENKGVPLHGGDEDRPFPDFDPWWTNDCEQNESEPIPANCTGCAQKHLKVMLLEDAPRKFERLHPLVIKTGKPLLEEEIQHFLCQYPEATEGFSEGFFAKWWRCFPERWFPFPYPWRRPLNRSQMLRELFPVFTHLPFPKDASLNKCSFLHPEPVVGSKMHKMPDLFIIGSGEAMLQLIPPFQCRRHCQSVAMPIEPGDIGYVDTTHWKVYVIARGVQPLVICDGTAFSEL
UniProt P35613: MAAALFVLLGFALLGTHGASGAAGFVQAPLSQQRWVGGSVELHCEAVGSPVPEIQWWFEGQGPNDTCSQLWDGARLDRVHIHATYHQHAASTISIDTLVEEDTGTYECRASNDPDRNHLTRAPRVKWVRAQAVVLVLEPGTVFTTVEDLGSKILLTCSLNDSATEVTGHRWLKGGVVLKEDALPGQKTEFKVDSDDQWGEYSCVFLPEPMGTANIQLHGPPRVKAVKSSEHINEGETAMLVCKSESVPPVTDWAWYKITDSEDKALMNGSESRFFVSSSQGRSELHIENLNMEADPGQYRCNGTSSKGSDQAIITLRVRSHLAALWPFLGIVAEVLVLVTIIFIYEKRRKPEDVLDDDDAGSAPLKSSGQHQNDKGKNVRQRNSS
UniProt Q9BVC5: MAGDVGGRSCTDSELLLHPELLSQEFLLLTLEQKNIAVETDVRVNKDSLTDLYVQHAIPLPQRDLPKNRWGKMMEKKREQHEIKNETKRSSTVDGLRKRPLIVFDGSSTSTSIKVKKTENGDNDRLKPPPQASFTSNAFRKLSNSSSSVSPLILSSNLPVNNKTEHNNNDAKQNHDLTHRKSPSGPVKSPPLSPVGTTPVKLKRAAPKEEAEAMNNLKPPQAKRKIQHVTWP
UniProt Q8N5I9: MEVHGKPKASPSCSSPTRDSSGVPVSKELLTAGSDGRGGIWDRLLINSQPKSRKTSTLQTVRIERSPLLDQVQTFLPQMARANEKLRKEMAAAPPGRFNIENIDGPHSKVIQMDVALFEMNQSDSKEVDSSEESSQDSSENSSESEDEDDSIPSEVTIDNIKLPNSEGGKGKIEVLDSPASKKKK
UniProt P49069: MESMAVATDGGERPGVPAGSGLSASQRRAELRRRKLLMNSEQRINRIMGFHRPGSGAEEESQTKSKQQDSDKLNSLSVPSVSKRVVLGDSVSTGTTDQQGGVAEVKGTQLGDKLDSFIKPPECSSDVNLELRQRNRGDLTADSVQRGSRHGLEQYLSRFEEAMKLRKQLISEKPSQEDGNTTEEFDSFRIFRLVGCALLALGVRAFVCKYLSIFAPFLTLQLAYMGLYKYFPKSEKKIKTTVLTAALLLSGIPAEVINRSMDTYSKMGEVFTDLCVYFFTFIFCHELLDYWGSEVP
UniProt Q49AR2: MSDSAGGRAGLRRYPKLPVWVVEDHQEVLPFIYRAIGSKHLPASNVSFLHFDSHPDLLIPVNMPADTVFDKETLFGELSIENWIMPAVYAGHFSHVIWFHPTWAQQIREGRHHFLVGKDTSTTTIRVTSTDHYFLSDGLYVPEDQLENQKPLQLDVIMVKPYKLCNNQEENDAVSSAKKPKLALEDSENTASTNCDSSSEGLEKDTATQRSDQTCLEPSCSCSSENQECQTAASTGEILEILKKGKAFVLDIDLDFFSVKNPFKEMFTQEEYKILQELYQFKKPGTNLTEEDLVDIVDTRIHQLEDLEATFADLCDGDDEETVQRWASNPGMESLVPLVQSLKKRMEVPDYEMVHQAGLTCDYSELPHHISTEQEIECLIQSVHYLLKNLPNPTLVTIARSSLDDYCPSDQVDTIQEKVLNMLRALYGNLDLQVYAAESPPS
UniProt Q9H8G2: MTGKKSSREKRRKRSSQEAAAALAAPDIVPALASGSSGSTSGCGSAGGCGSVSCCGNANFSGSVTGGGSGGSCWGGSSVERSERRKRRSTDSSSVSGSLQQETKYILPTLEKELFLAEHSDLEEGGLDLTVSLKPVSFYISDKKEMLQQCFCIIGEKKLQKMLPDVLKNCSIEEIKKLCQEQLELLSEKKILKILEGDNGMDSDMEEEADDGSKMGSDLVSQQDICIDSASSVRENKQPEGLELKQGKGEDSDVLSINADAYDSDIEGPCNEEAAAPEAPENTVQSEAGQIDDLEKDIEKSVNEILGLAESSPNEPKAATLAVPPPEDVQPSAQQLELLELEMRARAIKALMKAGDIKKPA
UniProt Q9H425: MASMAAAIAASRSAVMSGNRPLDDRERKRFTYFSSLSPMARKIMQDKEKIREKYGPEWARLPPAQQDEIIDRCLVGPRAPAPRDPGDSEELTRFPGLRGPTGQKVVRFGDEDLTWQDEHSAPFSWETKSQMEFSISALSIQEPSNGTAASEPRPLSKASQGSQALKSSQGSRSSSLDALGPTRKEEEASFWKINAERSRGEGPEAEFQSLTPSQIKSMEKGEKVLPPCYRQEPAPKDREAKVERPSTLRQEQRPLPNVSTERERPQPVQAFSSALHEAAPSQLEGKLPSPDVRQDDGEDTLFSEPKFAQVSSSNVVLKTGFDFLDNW

[1] = compound: C/C(=N\NC(=O)C1=CC(=CC=C1)S(=O)(=O)N2CCOCC2)/C3=C(C=CC(=C3)Cl)O
In short: as §1

[2] = compound: C1=CC(=C(C=C1Cl)C2=NC3=NC=CN=C3C(=N2)NC4=CC=NC=C4)F
In short: as §1

[3] = compound: C1=CC(=CC=C1C2=NC3=C(N2)C=C(C=C3)C(=O)N)OC4=CC=C(C=C4)Cl
In short: as §1

[4] = compound: C1=CC2=C(C=CC(=C2)/C=C\3/C(=O)NC(=NCC4=CC=CS4)S3)N=C1
In short: as §1

[5] = compound: C1=CC2=NC=CN=C2C=C1/C=C/3\C(=O)NC(=O)S3
In short: as §1

[6] = compound: C1=CC=C(C=C1)C2=NC(=C(N2)C3=CC=NC=C3)C4=CC(=C(C=C4)Cl)O
In short: as §1

[7] = compound: C1=CC=C2C(=C1)C3=NNC4=CC=CC(=C43)C2=O
In short: as §1

[8] = compound: C1CCN(C1)C(=O)NC2=CC=CC(=C2)NC3=NC=C(C(=N3)NCCC4=CN=CN4)Br
In short: as §1

[9] = compound: C1CN(CCC1(CC2=CC=C(C=C2)Cl)N)C3=NC=NC4=C3C=CN4
In short: as §1

IRAK-1-4 Inhibitor I = compound: C1COCCN1CCN2C3=CC=CC=C3N=C2NC(=O)C4=CC(=CC=C4)[N+](=O)[O-] [IRAK-1-4 Inhibitor I]
In short: as §1

ibrutinib = compound: C=CC(=O)N1CCC[C@@H](n2nc(-c3ccc(Oc4ccccc4)cc3)c3c(N)ncnc32)C1 [ibrutinib]
In short: as §1

[10] = compound: CC(=O)c1cnc2ccc(-c3cc(Cl)c(O)c(Cl)c3)nc2c1N[C@H]1CC[C@H](CN(C)C)CC1
In short: as §1

ralimetinib = compound: CC(C)(C)Cn1c(N)nc2ccc(-c3[nH]c(C(C)(C)C)nc3-c3ccc(F)cc3)nc21 [ralimetinib]
In short: as §1

[11] = compound: CC(C)(O)CC(=O)NCCn1ccc2ncnc(Nc3ccc(Oc4cccc(C(F)(F)F)c4)c(Cl)c3)c21
In short: as §1

[12] = compound: CC(C)C1=C2N=C(C=C(N2N=C1)NCC3=CC=CC=C3)NCCCCCCN
In short: as §1

[13] = compound: CC(C)C[C@@H](C=O)NC(=O)[C@H](CC(C)C)NC(=O)[C@H](CC(C)C)NC(=O)OCc1ccccc1
In short: as §1

pinometostat = compound: CC(C)N(C[C@H]1O[C@@H](n2cnc3c(N)ncnc32)[C@H](O)[C@@H]1O)[C@H]1C[C@@H](CCc2nc3cc(C(C)(C)C)ccc3[nH]2)C1 [pinometostat]
In short: as §1

[14] = compound: CC1=C(C(CC(=O)N1)C2=CC=C(C=C2)C(F)(F)F)C(=O)NC3=C(C=C4C(=C3)C=NN4)F
In short: as §1

[15] = compound: CC1=C(C2=C(C=C1)C(=O)C3=CC=CC=C3N2CCCN)C
In short: as §1

Measured: log2 fold change

C1orf52 (UniProt Q8N6N3)
inactive: erlotinib 0.025 | [1] -0.046 | [2] -0.017 | [3] 0.013 | [4] -0.026 | [5] 0.05 | [6] 0.018 | [7] -0.005 | [8] -0.009 | [9] 0.022 | IRAK-1-4 Inhibitor I 0.066 | ibrutinib -0.033 | [10] 0.025 | ralimetinib -0.064 | [11] 0.051 | [12] 0.087 | [13] 0.098 | pinometostat -0.007 | [14] 0.016 | [15] 0.044

C1QBP (UniProt Q07021)
inactive: erlotinib -0.088 | [1] -0.044 | [2] 0.058 | [3] 0.044 | [4] 0.013 | [5] -0.003 | [6] -0.024 | [7] 0.028 | [8] 0.057 | [9] 0.02 | IRAK-1-4 Inhibitor I 0.035 | ibrutinib -0.004 | [10] -0.04 | ralimetinib 0.054 | [11] 0.002 | [12] 0.05 | [13] 0.007 | pinometostat -0.033 | [14] 0.017 | [15] -0.04

C18orf25 (UniProt Q96B23)
inactive: erlotinib -0.008 | [1] -0.013 | [2] 0 | [3] 0.064 | [4] -0.035 | [5] 0.057 | [6] 0.017 | [7] -0.009 | [8] -0.019 | [9] 0.058 | IRAK-1-4 Inhibitor I 0.03 | ibrutinib -0.002 | [10] 0.151 | ralimetinib -0.029 | [11] -0.033 | [12] 0.048 | [13] 0.048 | pinometostat -0.03 | [14] 0.057 | [15] -0.141

CANX isoform 2 (UniProt P27824)
inactive: erlotinib -0.068 | [1] -0.115 | [2] -0.027 | [3] -0.016 | [4] -0.089 | [5] -0.005 | [6] -0.03 | [7] 0.021 | [8] 0.015 | [9] -0.018 | IRAK-1-4 Inhibitor I -0.034 | ibrutinib -0.001 | [10] 0.023 | ralimetinib 0.018 | [11] 0.057 | [12] -0.011 | [13] 0.029 | pinometostat 0.026 | [14] 0.023 | [15] -0.052

C6orf47 (UniProt O95873)
inactive: erlotinib -0.01 | [1] -0.025 | [2] 0.044 | [3] 0.038 | [4] 0.04 | [5] 0.067 | [6] -0.029 | [7] -0.008 | [8] 0.022 | [9] 0.058 | IRAK-1-4 Inhibitor I 0.044 | ibrutinib 0 | [10] 0.037 | ralimetinib -0.098 | [11] 0.009 | [12] -0.047 | [13] -0.019 | pinometostat -0.057 | [14] 0.017 | [15] 0.008

C5orf51 (UniProt A6NDU8)
inactive: erlotinib -0.067 | [1] 0.092 | [2] 0.063 | [3] 0.046 | [4] 0.004 | [5] 0.036 | [6] -0.062 | [7] 0 | [8] -0.017 | [9] -0.037 | IRAK-1-4 Inhibitor I 0.063 | ibrutinib -0.026 | [10] 0.077 | ralimetinib 0.057 | [11] -0.079 | [12] -0.073 | [13] 0.028 | pinometostat 0.085 | [14] 0.124 | [15] -0.006

C15orf40 (UniProt Q8WUR7)
inactive: erlotinib 0.036 | [1] -0.125 | [2] -0.088 | [3] -0.019 | [4] 0.053 | [5] 0.07 | [6] -0.107 | [7] -0.08 | [8] 0.052 | [9] 0.044 | IRAK-1-4 Inhibitor I 0.133 | ibrutinib 0.017 | [10] -0.021 | ralimetinib -0.071 | [11] 0.048 | [12] 0.068 | [13] 0.046 | pinometostat 0.042 | [14] 0.021 | [15] -0.062

C6orf89 isoform 2 (UniProt Q6UWU4)
inactive: erlotinib -0.053 | [1] 0.072 | [2] 0 | [3] 0.044 | [4] 0.028 | [5] 0.056 | [6] -0.042 | [7] -0.032 | [8] -0.021 | [9] 0.006 | IRAK-1-4 Inhibitor I 0 | ibrutinib 0.004 | [10] -0.002 | ralimetinib -0.023 | [11] -0.023 | [12] -0.069 | [13] 0.045 | pinometostat -0.033 | [14] 0.033 | [15] -0.008

BSG (UniProt P35613)
inactive: erlotinib -0.002 | [1] 0.008 | [2] -0.004 | [3] -0.016 | [4] -0.001 | [5] -0.013 | [6] -0.013 | [7] -0.069 | [8] 0 | [9] 0.058 | IRAK-1-4 Inhibitor I 0.021 | ibrutinib 0.012 | [10] -0.043 | ralimetinib -0.041 | [11] 0.022 | [12] 0.165 | [13] -0.001 | pinometostat -0.01 | [14] -0.013 | [15] 0.037

BTF3L4 (UniProt Q96K17)
inactive: erlotinib 0.004 | [1] 0.056 | [2] -0.004 | [3] -0.002 | [4] -0.027 | [5] 0.023 | [6] -0.012 | [7] 0.007 | [8] -0.017 | [9] 0.062 | IRAK-1-4 Inhibitor I 0.087 | ibrutinib 0.007 | [10] -0.036 | ralimetinib -0.057 | [11] 0.01 | [12] 0.077 | [13] -0.015 | pinometostat -0.04 | [14] 0.004 | [15] -0.031

C2orf49 (UniProt Q9BVC5)
inactive: erlotinib -0.032 | [1] 0.023 | [2] -0.291 | [3] -0.082 | [4] -0.081 | [5] 0.038 | [6] 0.07 | [7] 0.117 | [8] 0.042 | [9] -0.129 | IRAK-1-4 Inhibitor I -0.061 | ibrutinib -0.095 | [10] 0.041 | ralimetinib 0.112 | [11] 0.028 | [12] -0.086 | [13] 0.15 | pinometostat 0.22 | [14] 0.005 | [15] -0.036

2 successive records out of the list so far, for reference:
C6orf89 isoform 2 (UniProt Q6UWU4)
inactive: erlotinib -0.053 | [1] 0.072 | [2] 0 | [3] 0.044 | [4] 0.028 | [5] 0.056 | [6] -0.042 | [7] -0.032 | [8] -0.021 | [9] 0.006 | IRAK-1-4 Inhibitor I 0 | ibrutinib 0.004 | [10] -0.002 | ralimetinib -0.023 | [11] -0.023 | [12] -0.069 | [13] 0.045 | pinometostat -0.033 | [14] 0.033 | [15] -0.008

BSG (UniProt P35613)
inactive: erlotinib -0.002 | [1] 0.008 | [2] -0.004 | [3] -0.016 | [4] -0.001 | [5] -0.013 | [6] -0.013 | [7] -0.069 | [8] 0 | [9] 0.058 | IRAK-1-4 Inhibitor I 0.021 | ibrutinib 0.012 | [10] -0.043 | ralimetinib -0.041 | [11] 0.022 | [12] 0.165 | [13] -0.001 | pinometostat -0.01 | [14] -0.013 | [15] 0.037

Next entries follow:

C12orf45 (UniProt Q8N5I9)
inactive: erlotinib 0.014 | [1] -0.017 | [2] 0.045 | [3] -0.009 | [4] -0.056 | [5] 0.093 | [6] -0.087 | [7] -0.011 | [8] 0.001 | [9] -0.014 | IRAK-1-4 Inhibitor I 0.036 | ibrutinib -0.063 | [10] 0.045 | ralimetinib -0.073 | [11] 0 | [12] 0.017 | [13] 0.065 | pinometostat -0.059 | [14] 0.051 | [15] -0.213

CAMLG (UniProt P49069)
inactive: erlotinib 0.012 | [1] 0.031 | [2] -0.016 | [3] 0.032 | [4] 0.056 | [5] 0.017 | [6] -0.029 | [7] -0.086 | [8] -0.023 | [9] 0.082 | IRAK-1-4 Inhibitor I 0.027 | ibrutinib -0.005 | [10] -0.009 | ralimetinib -0.04 | [11] 0.024 | [12] 0.046 | [13] 0.019 | pinometostat -0.029 | [14] -0.018 | [15] 0.021

C5orf22 (UniProt Q49AR2)
inactive: erlotinib 0.019 | [1] -0.031 | [2] 0.033 | [3] 0.047 | [4] 0.047 | [5] 0.017 | [6] 0.043 | [7] 0.05 | [8] -0.013 | [9] 0.005 | IRAK-1-4 Inhibitor I 0.05 | ibrutinib -0.002 | [10] 0.022 | ralimetinib 0.023 | [11] 0.003 | [12] 0.013 | [13] -0.014 | pinometostat 0.009 | [14] -0.031 | [15] -0.015

CAAP1 (UniProt Q9H8G2)
inactive: erlotinib -0.07 | [1] 0.068 | [2] -0.143 | [3] 0.035 | [4] -0.035 | [5] -0.094 | [6] -0.345 | [7] -0.161 | [8] 0.111 | [9] 0.016 | IRAK-1-4 Inhibitor I 0.073 | ibrutinib -0.127 | [10] 0.044 | ralimetinib 0.144 | [11] 0.265 | [12] 0.099 | [13] 0.108 | pinometostat 0.047 | [14] -0.021 | [15] -0.06

C1orf198 (UniProt Q9H425)
inactive: erlotinib 0.101 | [1] -0.041 | [2] 0 | [3] 0.159 | [4] -0.108 | [5] 0.031 | [6] -0.058 | [7] -0.004 | [8] -0.001 | [9] 0.03 | IRAK-1-4 Inhibitor I 0.08 | ibrutinib -0.003 | [10] 0.035 | ralimetinib 0.007 | [11] -0.003 | [12] 0.015 | [13] 0.124 | pinometostat -0.021 | [14] 0.008 | [15] -0.03

— the supplement of paper PMC10849652
